Results as given in PubChem BioAssay AID2685 (National Center for Advancing Translational Sciences (NCATS), 2010).
This is one part of the list. These are further read-outs of the screen, such as a control signal, another cell line or another target. No call is given for them. The list favours compounds with an active or inconclusive main result. Potencies come from curve fits of mixed quality, noted in brackets.

Assay: qHTS Assay for Lipid Storage Modulators in Drosophila S3 Cells;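 for cell number change: cells counted by Cell Tracker Red CMTPX staining in the red channel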
Settings: BODIPY lipid droplet fluorescence, 18-24 h; for cell number change: measured here: cell count max response, cells fed with added oleic acid
How it was run: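 Drosophila S3 cells got compounds at several concentrations plus oleic acid (400 uM solution). Laser-scanning cytometry with 488 nm excitation read lipid droplets at 500-530 nm and cells at 575-640 nm. Percent activity was relative to 20 uM Triacsin C.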

[1] = measured here: lipid fluorescence (Fed channel) AC50, cells fed with added oleic acid
[2] = measured here: cell number channel AC50, cells fed with added oleic acid

Row | SMILES | cell number change | AC50 [1] | AC50 [2]
1 | O=S(=O)(NCC1CCCO1)c1ccc(S(=O)(=O)N2CCCC2)cc1 (centres undefined) | 9.42% | 0.00411 µM [rising, full curve, poor fit] | –
2 | O=C1C=C(c2ccc(Cl)nc2)C[C@@H](c2ccc3c(c2)OCO3)C1 | – | 1.84 µM [falling, partial curve, poor fit] | 0.517 µM [falling, partial curve]
3 | COc1cccc(C2NC(=O)NC(C)=C2C(=O)Nc2ccccc2C)c1 (centres undefined) | -12.7% | 18.4 µM [rising, single point] | –
4 | CN(C)S(=O)(=O)c1ccc(C(=O)NC(=O)CSc2ccccc2)cc1 | 76.8% | – | 29.1 µM [rising, single point]
5 | COC(=O)[C@H]1CN(C(=O)c2ccccc2)C(=O)N1 | -12.6% | – | –
6 | CC(=O)Nc1ccccc1OCc1nnc(-c2ccccc2Cl)o1 | -0.794% | 0.103 µM [rising, full curve, poor fit] | –
7 | COc1ccc2ccccc2c1CN1CCSCC1 | – | 0.146 µM [falling, full curve, poor fit] | 0.184 µM [falling, full curve, poor fit]
8 | NC(=O)CSc1cn(Cc2ccc(F)cc2)c2ccccc12 | 33.9% | 16.4 µM [rising, single point] | 13 µM [rising, single point]
9 | Cc1cc(=O)oc2cc(OCC(=O)NCCN3CCOCC3)ccc12 | -1.18% | 6.51 µM [falling, single point] | –
10 | CCCCNc1ncnc2c1cnn2Cc1ccc(Cl)cc1 | -0.704% | 20.6 µM [falling, partial curve] | 0.146 µM [rising, full curve, poor fit]
11 | OC(CN1CCCCC1)Cn1c(C(F)(F)F)nc2ccccc21 (centres undefined) | -75.8% | – | –
12 | O=C(NC1=NCCS1)C1CC2CCC1C2 (centres undefined) | 43.7% | 29.1 µM [rising, partial curve, poor fit] | 9.2 µM [rising, partial curve]
13 | CSc1nc2ccccc2n1CC(=O)Nc1c(C)cccc1C | -26.9% | – | –
14 | COc1ccc(OC)c(NC(=O)CCOc2cccc(C)c2)c1 | -1.67% | 0.206 µM [rising, full curve, poor fit] | –
15 | COc1ccc(NC(=O)/C=C/c2ccc(F)cc2)cn1 | -16.7% | – | –
16 | Cn1c(-c2csc(-c3ccccc3)n2)n[nH]c1=S | 76.6% | – | –
17 | COc1ccc(CCNC(=O)C(=O)NCC2OCCN2S(=O)(=O)c2ccc3c(c2)OCCO3)cc1OC (centres undefined) | -20.5% | 0.58 µM [falling, single point] | –
18 | O=C(Oc1cccc2c(=O)[nH]ccc12)c1ccccc1 | -20.6% | 0.206 µM [falling, partial curve, poor fit] | –
19 | COC(=O)c1cn(NC(=O)Cc2ccccc2OC)c(=O)c2ccccc12 | -47.7% | 0.461 µM [falling, full curve, poor fit] | 25.9 µM [falling, partial curve, poor fit]
20 | COc1ccc(-c2csc(NC(=O)Cc3cc(OC)c(OC)c(OC)c3)n2)cc1OC | 24.3% | 11.6 µM [falling, single point] | –

Row | SMILES | cell number change | AC50 [1] | AC50 [2]
21 | Cc1cc(C)c(OCC(=O)OCC(=O)N(C)C2CCS(=O)(=O)C2)c(C)c1 (centres undefined) | -8.38% | 29.1 µM [rising, single point] | –
22 | CN(C)/C=C/C(=O)c1cnc(-c2ccccc2)s1 | 66.6% | 6.51 µM [falling, single point] | 29.1 µM [rising, single point]
23 | NC(=O)C1CCN(C(=O)c2ccc(Cl)c(S(=O)(=O)NCc3ccco3)c2)CC1 | 0.871% | 0.146 µM [falling, full curve] | 0.13 µM [falling, full curve, poor fit]
24 | C=CCn1c(COc2ccccc2)nnc1SCc1ccc(C#N)cc1 | 4.58% | 2.31 µM [rising, single point] | –
25 | CN1CCN(c2nc3c(c(=O)[nH]c(=O)n3C)n2CC(N)=O)CC1 | 2.44% | 0.00517 µM [rising, full curve, poor fit] | –
26 | CC(C)c1[nH]nc2c1C(C1C=CCCC1)C(C#N)=C(N)O2 (centres undefined) | -1.19% | – | 1.64 µM [falling, partial curve, poor fit]
27 | CCCn1c(N)c(C(=O)COC(=O)c2cccc(S(=O)(=O)N3CCOCC3)c2)c(=O)[nH]c1=O | 0.705% | 18.4 µM [falling, single point] | –
28 | O=C(CNC(=O)c1ccco1)N=Nc1c(O)[nH]c2ccc([N+](=O)[O-])cc12 | – | 0.82 µM [falling, full curve] | –
29 | O=C(Cn1cnc2ccccc2c1=O)OCC(=O)c1ccc2c(c1)OCCO2 | 16.2% | 0.461 µM [rising, full curve] | 1.46 µM [rising, full curve, poor fit]
30 | O=C(CCSCc1ccc(Cl)cc1)NCc1cccs1 | -40.6% | 29.1 µM [falling, single point] | 29.1 µM [falling, single point]
31 | CN(/N=C/c1cc(Cl)ccc1O)C1=NS(=O)(=O)c2ccccc21 | – | 29.1 µM [falling, single point] | –
32 | CN(C)CCCNC(=O)/C(=C/c1ccc(-c2ccc([N+](=O)[O-])cc2)o1)NC(=O)c1ccccc1 | -17.6% | 29.1 µM [falling, single point] | 7.31 µM [falling, single point]
33 | COc1nc(-c2ccccc2)cc(-c2ccc(OC)c(OC)c2)n1 | -23.4% | – | –
34 | CCOc1ccc(-n2c(C)nc(O)c2N=Nc2ccccc2)cc1 | – | – | 3.66 µM [falling, single point]
35 | COc1ccc(-n2c(=O)c3c4c(sc3n(CC(N)=O)c2=O)CCCCC4)cc1 | -19% | 29.1 µM [falling, single point] | 1.64 µM [falling, full curve, poor fit]
36 | Cc1ccccc1OCC(=O)Nc1ccccc1-c1ccccc1 | -23.6% | 29.1 µM [falling, single point] | –
37 | COc1cccc(CC(=O)N2CCC(n3nccc3NC(=O)C3CCOC3)CC2)c1 (centres undefined) | 20.8% | 7.94 µM [rising, partial curve, poor fit] | –
38 | CCCc1ccc2oc(C(=O)N(Cc3ccncc3)CC3CCCO3)c(C)c2c1 (centres undefined) | 1.74% | – | 1.84 µM [rising, partial curve]
39 | CC1(C)SC2c3ccccc3C(=O)N2[C@@H]1C(=O)O (some centres undefined) | 3.6% | – | 5.17 µM [rising, single point]
40 | Cc1cc2[nH]c(=O)c(=O)[nH]c2cc1S(=O)(=O)N1CCN(c2cccc(Cl)c2)CC1 | -23.9% | 29.1 µM [falling, single point] | –

Row | SMILES | cell number change | AC50 [1] | AC50 [2]
41 | Cc1ccc2nc(C)cc(N3CCOCC3)c2c1 | -32.1% | 6.51 µM [falling, single point] | 32.6 µM [falling, single point]
42 | CNC(=S)NCc1ccc(OC)cc1 | -3.74% | – | –
43 | COc1ccc2c(c1)c1nc3ccccc3nc1n2Cc1ccc(OC(C)C)c(OC)c1 | -26.4% | – | –
44 | Cc1ccc(S(=O)(=O)N(C)C)cc1NC(=O)CN1c2cccc3cccc(c23)S1(=O)=O | -24.6% | 2.31 µM [falling, partial curve, poor fit] | –
45 | COCCN(C(=O)CNC(=O)c1ccco1)C(C(=O)NC1CCCC1)c1ccc(OC)c(OC)c1 (centres undefined) | – | 29.1 µM [falling, single point] | –
46 | O=S(=O)(NC1CCCCC1)c1ccc(S(=O)(=O)N2CCN3CCCC3C2)cc1 (centres undefined) | 3.38% | 0.651 µM [falling, single point] | –
47 | CC(C)(C)Nc1nc(SCC(=O)Nc2ccccc2Cl)nc(N2CCOCC2)n1 | -19.1% | – | –
48 | Clc1ccc(OCc2nc(-c3ccncc3)no2)c(Br)c1 | 6.6% | 3.66 µM [rising, full curve] | –
49 | O=C(Nc1cc(S(=O)(=O)N2CCOCC2)ccc1N1CCCC1)c1ccc(Cl)cc1 | -54% | 6.51 µM [rising, single point] | 20.6 µM [falling, partial curve]
50 | CNc1nc(N)c([N+](=O)[O-])c(Nc2cccc(Cl)c2)n1 | -10.6% | – | 0.461 µM [falling, single point]
51 | O=C(Nc1ncccc1O)c1ccc(Cl)c(S(=O)(=O)N2CCCCC2)c1 | – | 29.1 µM [rising, single point] | –
52 | O=C(CCSc1nc(-c2ccco2)cc(C(F)(F)F)n1)NCc1cccs1 | -26.8% | 20.6 µM [falling, single point] | –
53 | O=C(CCN1C(=O)COc2ccccc21)NCCCN1CCN(c2ccccc2F)CC1 | -16.8% | 29.1 µM [falling, single point] | –
54 | CC(C)C(=O)Nc1ccc(Br)cc1Cl | 29.2% | 3.55 µM [rising, single point] | –
55 | Cc1ccc(-n2c(C)csc2=N)cc1 | 73.4% | 29.1 µM [rising, single point] | 20.6 µM [rising, single point]
56 | CC(C)CNC(=O)/C=C/c1cccs1 | 14% | 0.103 µM [rising, full curve, poor fit] | –
57 | Cc1ccc(NC(=O)CCc2c[nH]c3ccccc23)nc1 | -34.1% | 14.6 µM [falling, partial curve] | 23.1 µM [falling, single point]
58 | Cc1csc2ncc(C(=O)N3CCCc4ccccc43)c(=O)n12 | -6.86% | 7.31 µM [falling, partial curve] | –
59 | COc1cc(CNCc2ccccc2)ccc1OCC(O)c1ccccc1 (centres undefined) | -23.4% | 0.651 µM [falling, single point] | 0.326 µM [falling, single point]

One compound at a time (already shown). Order of values: cell number change	AC50 [1]	AC50 [2]
`O=C(CCN1C(=O)COc2ccccc21)NCCCN1CCN(c2ccccc2F)CC1` reads -16.8%	29.1 µM [falling, single point]	–
`Cc1ccc2nc(C)cc(N3CCOCC3)c2c1` reads -32.1%	6.51 µM [falling, single point]	32.6 µM [falling, single point]
